# Source: the supplement of paper PMC12595434, “Development of retinoid nuclear receptor pathway antagonists through targeting aldehyde dehydrogenase 1A3” (iScience, 2025)
# By UniProt entry, the sequences of proteins in these tests, tags left out. Where a name states a change or a piece, a line headed by the entry shows the natural chain unless it says otherwise.
# UniProt Q8TEQ6: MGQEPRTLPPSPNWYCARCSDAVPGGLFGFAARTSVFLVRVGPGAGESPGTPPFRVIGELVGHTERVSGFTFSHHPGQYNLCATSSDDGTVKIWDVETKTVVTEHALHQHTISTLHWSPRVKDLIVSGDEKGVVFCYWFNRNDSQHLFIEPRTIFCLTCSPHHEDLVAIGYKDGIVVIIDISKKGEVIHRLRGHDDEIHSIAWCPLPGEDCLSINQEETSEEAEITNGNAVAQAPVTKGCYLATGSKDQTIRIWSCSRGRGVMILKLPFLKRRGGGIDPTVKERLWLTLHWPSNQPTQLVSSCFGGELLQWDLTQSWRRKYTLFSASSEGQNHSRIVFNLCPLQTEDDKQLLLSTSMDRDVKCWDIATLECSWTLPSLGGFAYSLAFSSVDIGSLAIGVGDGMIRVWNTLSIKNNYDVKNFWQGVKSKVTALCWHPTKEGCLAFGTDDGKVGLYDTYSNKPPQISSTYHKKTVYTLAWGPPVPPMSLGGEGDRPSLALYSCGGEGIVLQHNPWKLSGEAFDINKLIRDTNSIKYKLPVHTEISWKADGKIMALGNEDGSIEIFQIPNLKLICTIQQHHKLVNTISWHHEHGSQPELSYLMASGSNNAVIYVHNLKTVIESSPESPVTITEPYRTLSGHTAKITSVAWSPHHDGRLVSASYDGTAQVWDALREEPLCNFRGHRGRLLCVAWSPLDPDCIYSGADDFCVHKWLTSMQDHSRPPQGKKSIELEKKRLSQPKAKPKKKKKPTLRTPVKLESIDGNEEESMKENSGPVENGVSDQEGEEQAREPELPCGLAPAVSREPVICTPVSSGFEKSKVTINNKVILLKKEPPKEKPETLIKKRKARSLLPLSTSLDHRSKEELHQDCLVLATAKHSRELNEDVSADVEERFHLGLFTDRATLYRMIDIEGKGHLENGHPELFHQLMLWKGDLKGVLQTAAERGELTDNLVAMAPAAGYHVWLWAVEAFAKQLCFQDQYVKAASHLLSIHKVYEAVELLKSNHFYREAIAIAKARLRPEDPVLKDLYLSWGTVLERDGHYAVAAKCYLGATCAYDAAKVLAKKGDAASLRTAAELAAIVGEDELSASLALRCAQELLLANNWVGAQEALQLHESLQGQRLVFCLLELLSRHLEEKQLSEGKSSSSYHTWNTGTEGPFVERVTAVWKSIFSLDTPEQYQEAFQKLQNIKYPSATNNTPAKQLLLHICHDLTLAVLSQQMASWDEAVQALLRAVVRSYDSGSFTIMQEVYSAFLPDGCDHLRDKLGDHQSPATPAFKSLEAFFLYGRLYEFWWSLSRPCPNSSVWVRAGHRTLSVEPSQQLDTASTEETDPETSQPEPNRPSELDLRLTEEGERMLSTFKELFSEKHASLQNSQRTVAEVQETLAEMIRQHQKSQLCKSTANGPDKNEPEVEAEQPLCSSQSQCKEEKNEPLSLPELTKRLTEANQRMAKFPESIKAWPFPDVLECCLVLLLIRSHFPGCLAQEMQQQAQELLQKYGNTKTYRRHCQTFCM
# UniProt Q8TAP8: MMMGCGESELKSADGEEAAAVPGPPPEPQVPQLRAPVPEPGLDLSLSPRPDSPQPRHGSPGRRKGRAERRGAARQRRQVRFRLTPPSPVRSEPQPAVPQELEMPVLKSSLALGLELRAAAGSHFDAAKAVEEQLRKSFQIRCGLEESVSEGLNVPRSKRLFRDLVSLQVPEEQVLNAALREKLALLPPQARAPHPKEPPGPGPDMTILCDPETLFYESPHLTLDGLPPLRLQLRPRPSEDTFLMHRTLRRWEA
# UniProt Q8WVV9: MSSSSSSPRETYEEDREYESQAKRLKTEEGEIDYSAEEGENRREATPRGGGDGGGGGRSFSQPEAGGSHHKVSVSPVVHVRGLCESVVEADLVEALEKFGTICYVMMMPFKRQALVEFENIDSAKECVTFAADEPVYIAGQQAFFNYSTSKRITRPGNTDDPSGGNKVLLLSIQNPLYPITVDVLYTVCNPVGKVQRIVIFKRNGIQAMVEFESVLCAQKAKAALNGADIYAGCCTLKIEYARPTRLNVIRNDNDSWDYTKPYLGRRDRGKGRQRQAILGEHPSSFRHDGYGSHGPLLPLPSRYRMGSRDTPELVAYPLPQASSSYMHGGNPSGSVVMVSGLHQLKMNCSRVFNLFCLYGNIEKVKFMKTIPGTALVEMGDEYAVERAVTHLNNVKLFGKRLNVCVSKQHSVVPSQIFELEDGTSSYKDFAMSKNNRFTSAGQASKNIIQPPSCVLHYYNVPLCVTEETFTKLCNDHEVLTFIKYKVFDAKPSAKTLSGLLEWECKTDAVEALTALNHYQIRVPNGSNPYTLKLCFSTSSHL
# UniProt Q8N9R8: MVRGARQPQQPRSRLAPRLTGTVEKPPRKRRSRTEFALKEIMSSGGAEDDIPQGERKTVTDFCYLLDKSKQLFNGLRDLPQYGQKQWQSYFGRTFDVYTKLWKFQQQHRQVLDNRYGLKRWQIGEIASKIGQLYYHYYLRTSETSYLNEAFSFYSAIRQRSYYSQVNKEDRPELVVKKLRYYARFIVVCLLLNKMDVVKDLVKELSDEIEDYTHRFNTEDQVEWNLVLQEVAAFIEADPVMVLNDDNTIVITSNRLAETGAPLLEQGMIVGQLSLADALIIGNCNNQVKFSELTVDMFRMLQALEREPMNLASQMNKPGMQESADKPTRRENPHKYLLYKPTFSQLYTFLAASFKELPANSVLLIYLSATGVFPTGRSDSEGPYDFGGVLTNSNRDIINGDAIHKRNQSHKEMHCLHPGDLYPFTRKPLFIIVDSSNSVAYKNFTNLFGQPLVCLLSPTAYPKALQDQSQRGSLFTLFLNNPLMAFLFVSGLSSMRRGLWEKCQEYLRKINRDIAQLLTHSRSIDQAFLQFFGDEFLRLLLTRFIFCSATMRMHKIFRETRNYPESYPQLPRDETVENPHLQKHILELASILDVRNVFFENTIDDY
# UniProt Q8TDX7: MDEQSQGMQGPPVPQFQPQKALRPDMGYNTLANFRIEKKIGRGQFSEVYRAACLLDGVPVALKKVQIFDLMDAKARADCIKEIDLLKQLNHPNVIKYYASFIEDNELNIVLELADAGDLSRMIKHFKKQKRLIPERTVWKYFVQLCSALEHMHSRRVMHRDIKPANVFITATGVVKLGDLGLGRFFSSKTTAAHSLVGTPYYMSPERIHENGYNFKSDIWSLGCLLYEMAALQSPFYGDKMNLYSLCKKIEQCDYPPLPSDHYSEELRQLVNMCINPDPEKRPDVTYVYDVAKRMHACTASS
# UniProt Q8NCP5: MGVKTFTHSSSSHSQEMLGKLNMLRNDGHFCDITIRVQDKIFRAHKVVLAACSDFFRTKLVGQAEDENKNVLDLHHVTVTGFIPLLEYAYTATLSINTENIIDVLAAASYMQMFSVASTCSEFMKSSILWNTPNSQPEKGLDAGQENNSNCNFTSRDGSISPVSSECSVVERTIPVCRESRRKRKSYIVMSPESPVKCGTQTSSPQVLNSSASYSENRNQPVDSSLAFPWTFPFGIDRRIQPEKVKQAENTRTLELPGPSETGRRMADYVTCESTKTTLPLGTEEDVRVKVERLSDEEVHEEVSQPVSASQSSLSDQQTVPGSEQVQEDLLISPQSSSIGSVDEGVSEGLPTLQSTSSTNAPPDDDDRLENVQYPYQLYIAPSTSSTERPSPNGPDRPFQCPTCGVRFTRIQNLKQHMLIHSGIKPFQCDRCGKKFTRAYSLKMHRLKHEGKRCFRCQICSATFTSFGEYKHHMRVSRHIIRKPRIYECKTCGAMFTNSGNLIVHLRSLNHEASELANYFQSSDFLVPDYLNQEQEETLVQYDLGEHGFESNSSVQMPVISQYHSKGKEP
# UniProt Q8TBZ3: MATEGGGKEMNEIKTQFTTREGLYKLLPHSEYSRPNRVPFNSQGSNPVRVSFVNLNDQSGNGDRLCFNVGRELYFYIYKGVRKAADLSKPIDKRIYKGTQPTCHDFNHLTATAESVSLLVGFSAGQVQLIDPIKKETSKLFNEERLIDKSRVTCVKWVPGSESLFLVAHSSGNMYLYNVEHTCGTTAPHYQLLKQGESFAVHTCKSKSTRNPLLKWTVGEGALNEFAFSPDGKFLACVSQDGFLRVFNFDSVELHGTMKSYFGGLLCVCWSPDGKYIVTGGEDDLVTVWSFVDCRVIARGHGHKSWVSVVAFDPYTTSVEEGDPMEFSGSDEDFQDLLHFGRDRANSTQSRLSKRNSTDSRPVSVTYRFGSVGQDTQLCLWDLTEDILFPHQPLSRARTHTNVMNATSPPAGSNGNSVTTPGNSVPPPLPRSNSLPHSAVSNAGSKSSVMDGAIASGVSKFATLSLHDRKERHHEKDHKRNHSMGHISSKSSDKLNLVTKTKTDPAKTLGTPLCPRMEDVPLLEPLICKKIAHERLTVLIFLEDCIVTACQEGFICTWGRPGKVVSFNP
# UniProt Q8NFV4: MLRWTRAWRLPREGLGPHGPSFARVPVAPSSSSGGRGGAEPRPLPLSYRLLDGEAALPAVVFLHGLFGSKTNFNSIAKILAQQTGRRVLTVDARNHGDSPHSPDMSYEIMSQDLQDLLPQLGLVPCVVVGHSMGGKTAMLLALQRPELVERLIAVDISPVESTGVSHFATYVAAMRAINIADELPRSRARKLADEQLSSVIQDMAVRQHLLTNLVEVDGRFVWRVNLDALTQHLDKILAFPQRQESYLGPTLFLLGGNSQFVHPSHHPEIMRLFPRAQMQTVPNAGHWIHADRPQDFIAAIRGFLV
# UniProt Q8WUH2: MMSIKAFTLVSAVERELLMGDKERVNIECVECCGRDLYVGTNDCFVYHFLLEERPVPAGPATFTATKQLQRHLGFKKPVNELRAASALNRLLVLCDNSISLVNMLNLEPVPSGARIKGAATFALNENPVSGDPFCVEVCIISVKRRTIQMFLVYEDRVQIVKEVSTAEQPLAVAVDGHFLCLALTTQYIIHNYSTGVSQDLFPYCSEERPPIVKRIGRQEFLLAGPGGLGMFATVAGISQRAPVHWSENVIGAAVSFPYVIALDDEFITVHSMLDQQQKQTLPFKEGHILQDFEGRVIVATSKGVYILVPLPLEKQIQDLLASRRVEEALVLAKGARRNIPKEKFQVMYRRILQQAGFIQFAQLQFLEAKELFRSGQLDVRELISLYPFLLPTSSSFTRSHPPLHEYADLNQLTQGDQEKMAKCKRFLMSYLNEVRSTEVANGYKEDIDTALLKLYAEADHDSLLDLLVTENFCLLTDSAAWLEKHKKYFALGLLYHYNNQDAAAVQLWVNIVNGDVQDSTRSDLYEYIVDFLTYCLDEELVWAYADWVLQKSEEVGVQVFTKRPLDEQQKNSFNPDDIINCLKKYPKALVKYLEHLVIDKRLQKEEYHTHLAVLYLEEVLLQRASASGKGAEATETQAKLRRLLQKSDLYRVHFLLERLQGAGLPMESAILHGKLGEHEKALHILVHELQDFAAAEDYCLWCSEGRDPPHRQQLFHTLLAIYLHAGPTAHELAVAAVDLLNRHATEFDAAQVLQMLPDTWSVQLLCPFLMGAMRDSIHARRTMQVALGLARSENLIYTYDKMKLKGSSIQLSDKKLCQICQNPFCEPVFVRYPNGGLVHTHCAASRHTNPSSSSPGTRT
# UniProt Q8NCE2: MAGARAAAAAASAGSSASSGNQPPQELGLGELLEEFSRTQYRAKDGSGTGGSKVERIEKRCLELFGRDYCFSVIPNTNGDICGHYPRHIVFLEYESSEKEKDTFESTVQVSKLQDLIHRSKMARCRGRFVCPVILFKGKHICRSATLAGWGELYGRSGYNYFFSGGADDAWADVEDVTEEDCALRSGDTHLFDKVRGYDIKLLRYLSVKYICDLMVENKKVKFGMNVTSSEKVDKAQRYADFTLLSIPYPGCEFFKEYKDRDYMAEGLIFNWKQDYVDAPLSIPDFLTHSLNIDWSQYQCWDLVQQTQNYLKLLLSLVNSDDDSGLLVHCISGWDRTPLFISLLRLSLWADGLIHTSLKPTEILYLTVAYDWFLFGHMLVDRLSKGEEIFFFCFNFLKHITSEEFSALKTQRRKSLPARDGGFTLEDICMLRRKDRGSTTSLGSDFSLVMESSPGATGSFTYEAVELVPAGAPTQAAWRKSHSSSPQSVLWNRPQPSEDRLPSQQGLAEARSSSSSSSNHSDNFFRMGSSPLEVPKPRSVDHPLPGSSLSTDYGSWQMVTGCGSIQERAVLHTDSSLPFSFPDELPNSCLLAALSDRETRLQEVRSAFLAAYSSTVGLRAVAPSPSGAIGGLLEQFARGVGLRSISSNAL
# UniProt Q8WVN8: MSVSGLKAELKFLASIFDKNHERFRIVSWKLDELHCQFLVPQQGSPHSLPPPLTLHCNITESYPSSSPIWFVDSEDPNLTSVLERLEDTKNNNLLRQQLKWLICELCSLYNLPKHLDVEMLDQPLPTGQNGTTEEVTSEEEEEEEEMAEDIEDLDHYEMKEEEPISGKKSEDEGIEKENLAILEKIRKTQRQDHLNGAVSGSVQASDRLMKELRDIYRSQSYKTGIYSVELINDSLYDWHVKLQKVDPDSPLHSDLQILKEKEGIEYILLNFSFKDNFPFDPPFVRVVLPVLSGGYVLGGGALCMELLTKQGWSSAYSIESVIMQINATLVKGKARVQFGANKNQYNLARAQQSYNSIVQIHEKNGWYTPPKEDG
# Some of the results follow. The data scatter; read single values as rough.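 Tm was set to 64 °C where no melting was found, and many curves are irregular.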
# Compound: CCc1cnccc1C(=O)Nc1cc2c(cc1F)NC(=O)CC2
# Test: melting temperature shift (DMSO Tm minus MBE1-treated Tm) in cellular thermal proteome profiling; higher = less thermal stabilization by MBE1 (negative = stabilized by MBE1)
# Conditions: A375; MBE1 concentration: 100 nM
row,Target,melting temperature shift
1,TBC1D22A (UniProt Q8WUA7),-1.32 °C
2,FAR1 (UniProt Q8WVX9),1.03 °C
3,GEMIN5 (UniProt Q8TEQ6),0.415 °C
4,UniProt Q8TAP8,-2.14 °C
5,UniProt Q8WVV9,-0.532 °C
6,UniProt Q8WVL7,-0.328 °C
7,UniProt Q8N9R8,1.11 °C
8,TRAPPC12 (UniProt Q8WVT3),1.01 °C
9,RDH13 (UniProt Q8NBN7),-0.408 °C
10,UniProt Q8NDA8,-1.25 °C
11,UniProt Q8TEU7,-0.766 °C
12,NEK7 (UniProt Q8TDX7),-0.055 °C
13,PPTC7 (UniProt Q8NI37),0.11 °C
14,POGLUT1 (UniProt Q8NBL1),-0.771 °C
15,ITFG1 (UniProt Q8TB96),-3.11 °C
16,UniProt Q8NCP5,-0.0305 °C
17,UniProt Q8TBZ3,-1.02 °C
18,UniProt Q8TCU4,2.01 °C
19,ABHD11 (UniProt Q8NFV4),-3.34 °C

row,Target,melting temperature shift
1,UniProt Q8N8Q8,-1.35 °C
2,GNPDA2 (UniProt Q8TDQ7),-2.66 °C
3,UniProt Q8NEZ4,-0.469 °C
4,SLC30A5 (UniProt Q8TAD4),-1.17 °C
5,SHKBP1 (UniProt Q8TBC3),-2.47 °C
6,UniProt Q8TDW0,-0.355 °C
7,PIGO (UniProt Q8TEQ8),-0.406 °C
8,TGFBRAP1 (UniProt Q8WUH2),-0.0847 °C
9,XXYLT1 (UniProt Q8NBI6),-0.825 °C
10,SNX33 (UniProt Q8WV41),-0.8 °C
11,CXORF38 (UniProt Q8TB03),-0.421 °C
12,TMEM263 (UniProt Q8WUH6),-0.843 °C
13,UniProt Q8NDX5,-2.79 °C
14,MTMR14 (UniProt Q8NCE2),0.727 °C
15,UniProt Q8NI77,-1.94 °C
16,NUDCD2 (UniProt Q8WVJ2),-0.786 °C
17,UniProt Q8WVN8,2.02 °C
18,UniProt Q8TEQ0,0.221 °C
19,PUM2 (UniProt Q8TB72),-0.476 °C

# Same assay, conditions: A375; MBE1 concentration: 1 uM
row,Target,melting temperature shift
1,TBC1D22A (UniProt Q8WUA7),-1.58 °C
2,FAR1 (UniProt Q8WVX9),0.592 °C
3,GEMIN5 (UniProt Q8TEQ6),0.0916 °C
4,UniProt Q8TAP8,1.41 °C
5,UniProt Q8WVV9,-0.211 °C
6,UniProt Q8WVL7,0.452 °C
7,UniProt Q8N9R8,1.08 °C
8,TRAPPC12 (UniProt Q8WVT3),-0.281 °C
9,RDH13 (UniProt Q8NBN7),0.22 °C
10,UniProt Q8NDA8,-1.59 °C
11,UniProt Q8TEU7,-0.532 °C
12,NEK7 (UniProt Q8TDX7),-0.0916 °C
13,PPTC7 (UniProt Q8NI37),0.171 °C
14,POGLUT1 (UniProt Q8NBL1),0.245 °C
15,ITFG1 (UniProt Q8TB96),0.855 °C
16,UniProt Q8NCP5,-0.202 °C
17,UniProt Q8TBZ3,-0.503 °C
18,UniProt Q8TCU4,4.1 °C
19,ABHD11 (UniProt Q8NFV4),0.758 °C

row,Target,melting temperature shift
1,UniProt Q8N8Q8,-1.67 °C
2,GNPDA2 (UniProt Q8TDQ7),1.68 °C
3,UniProt Q8NEZ4,0.355 °C
4,SLC30A5 (UniProt Q8TAD4),-0.657 °C
5,SHKBP1 (UniProt Q8TBC3),-1.85 °C
6,UniProt Q8TDW0,0.837 °C
7,PIGO (UniProt Q8TEQ8),0.464 °C
8,TGFBRAP1 (UniProt Q8WUH2),-0.221 °C
9,XXYLT1 (UniProt Q8NBI6),0.765 °C
10,SNX33 (UniProt Q8WV41),-0.795 °C
11,CXORF38 (UniProt Q8TB03),-0.0977 °C
12,TMEM263 (UniProt Q8WUH6),0.91 °C
13,UniProt Q8NDX5,-2.9 °C
14,MTMR14 (UniProt Q8NCE2),-0.134 °C
15,UniProt Q8NI77,-0.718 °C
16,NUDCD2 (UniProt Q8WVJ2),-0.136 °C
17,UniProt Q8WVN8,1.14 °C
18,UniProt Q8TEQ0,-1.03 °C
19,PUM2 (UniProt Q8TB72),-0.604 °C
